Results are given in words; binding and its absence hold for the method and conditions named. A result given as binding can be weak or reduced; the word gives no strength.

The target of experiment [1] is T1, FITC-labeled synthetic LCPss (S. salivarius).
T1 sequence (peptide, FITC (fluorescein) label, position not stated): MWLILLFL
Description: fluorescence polarisation; competition: preformed RopB (250 nM)-labeled LCPss (10 nM) complex challenged with unlabeled peptides; both purified. Background: Polarisation of emitted light reports the rotation of a fluorescent probe.

The target in experiment [2] is RopBss (RopB homolog, cytosolic LCP receptor of Streptococcus salivarius) (S. salivarius). Described as above.

As to “RopBss (RopB homolog, cytosolic LCP receptor of Streptococcus salivarius) (S. salivarius)”, in experiment [1], the binding entry is given as “binds”.
As to MWLILLFL [synthetic LCPss (unlabeled)], in experiment [2], the binding result is on record as “binds”.

The values are drawn from PMC10518010, “The leaderless communication peptide (LCP) class of quorum-sensing peptides is broadly distributed among Firmicutes” (Nature Communications, 2023).
